The values that follow come from article PMC13144348.

Where a chain is given by its changes, count along the chain named. In names and notes the source's numbering stands. No constants are given. Whether binding was seen depends on the method and setting. Some entries that bind do so weakly or less than the wild type. For some of these results: Tags and fused reporters may be left off the sequences shown.

Test [1] addresses T1, Ste4 (construct of Fig. S2A) (S. pombe) (UniProt P36622).
T1 sequence: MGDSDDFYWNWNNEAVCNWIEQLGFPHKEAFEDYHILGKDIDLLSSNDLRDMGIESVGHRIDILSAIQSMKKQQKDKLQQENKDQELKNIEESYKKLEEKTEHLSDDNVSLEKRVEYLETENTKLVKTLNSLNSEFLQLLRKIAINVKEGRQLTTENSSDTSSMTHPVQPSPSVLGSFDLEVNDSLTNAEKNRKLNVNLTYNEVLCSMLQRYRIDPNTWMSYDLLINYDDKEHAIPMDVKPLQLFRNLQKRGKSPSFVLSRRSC
Nature of the test: two-hybrid; pGAD and pGBD plasmids co-transformed in AH109; growth on selective SD medium lacking histidine with 3-amino-1,2,4-triazole.

Test [2] has as its target T2, Pil1-Ste4-mCherry (S. pombe) (UniProt P36622).
T2 sequence: T1 sequence
Description: Pil1 co-recruitment assay (microscopy); mCherry-tagged bait fused to Pil1 to target it to eisosomes; recruitment of the GFP-tagged prey assessed by microscopy in vegetative cells in MSL+N; Pearson correlation coefficient.

B1: MAP3K^Byr2 (construct of Fig. S2A) (protein, UniProt P28829 1-659)
chain: MEYYTSKEVAEWLKSIGLEKYIEQFSQNNIEGRHLNHLTLPLLKDLGIENTAKGKQFLKQRDYLREFPRPCILRFIACNGQTRAVQSRGDYQKTLAIALKKFSLEDASKFIVCVSQSSRIKLITEEEFKQICFNSSSPERDRLIIVPKEKPCPSFEDLRRSWEIELAQPAALSSQSSLSPKLSSVLPTSTQKRSVRSNNAKPFESYQRPPSELINSRISDFFPDHQPKLLEKTISNSLRRNLSIRTSQGHNLGNFGQEILPRSSRRARPSELVCPLSSLRISVAEDVNRLPRIDRGFDPPLTVSSTQRISRPPSLQKSITMVGVEPLYQSNGNEKSSKYNVFSESAHGNHQVLSFSPGSSPSFIEQPSPISPTSTTSEDTNTLEEDTDDQSIKWIRGALIGSGSFGQVYLGMNASSGELMAVKQVILDSVSESKDRHAKLLDALAGEIALLQELSHEHIVQYLGSNLNSDHLNIFLEYVPGGSVAGLLTMYGSFEETLVKNFIKQTLKGLEYLHSRGIVHRDIKGANILVDNKGKIKISDFGISKKLELNSTSTKTGGARPSFQGSSFWMAPEVVKQTMHTEKTDIWSLGCLVIEMLTSKHPYPNCDQMQAIFRIGENILPEFPSNISSSAIDFLEKTFAIDCNLRPTASELLSHPFVS
For B1, in test [1], the binding result is recorded as “binds”.

B2: MAP3K^Byr2 N28I, GFP-tagged (co-recruitment prey) (protein, UniProt P28829 1-659)
chain: B1 chain with N28I
On to B2, for which, in test [2], the binding entry is “no binding”.

B3: Byr2^N28I (construct of Fig. S2A) (protein, UniProt P28829 1-659)
chain: B1 chain with N28I
Consider B3, for which, in test [1], the binding entry is given as “no binding”.

B4: MAP3K^Byr2, GFP-tagged (co-recruitment prey) (protein, UniProt P28829 1-659)
chain: B1 chain
For the molecule B4, the binding entry in test [2] is reported as “binds”.
